According to PubChem BioAssay AID1671190 (National Center for Advancing Translational Sciences (NCATS), 2021):
Where “and” joins values, the source holds several entries; their conditions need not be identical. Identical values can stand only once. Out of some 580,000 compounds screened, about 6,100 (1.1%) were called active. Inconclusive results (about 15%) are left out. Calls come from the whole dose curve; as a rule, active = well fitted inhibition curve with a large enough effect; inconclusive = small, poorly fitted or top-dose-only effect, or another doubt; inactive = no such curve, though single readings can be large or run the other way. The entries are a selection whose mix differs from that of the whole data set. Where no call is shown, the source filed none. The source holds several records for some structures; these can differ, active in one and inactive in another.

Chains of the proteins cited; added tags and fusions are not shown.
UniProt P18054, whole entry, looked up: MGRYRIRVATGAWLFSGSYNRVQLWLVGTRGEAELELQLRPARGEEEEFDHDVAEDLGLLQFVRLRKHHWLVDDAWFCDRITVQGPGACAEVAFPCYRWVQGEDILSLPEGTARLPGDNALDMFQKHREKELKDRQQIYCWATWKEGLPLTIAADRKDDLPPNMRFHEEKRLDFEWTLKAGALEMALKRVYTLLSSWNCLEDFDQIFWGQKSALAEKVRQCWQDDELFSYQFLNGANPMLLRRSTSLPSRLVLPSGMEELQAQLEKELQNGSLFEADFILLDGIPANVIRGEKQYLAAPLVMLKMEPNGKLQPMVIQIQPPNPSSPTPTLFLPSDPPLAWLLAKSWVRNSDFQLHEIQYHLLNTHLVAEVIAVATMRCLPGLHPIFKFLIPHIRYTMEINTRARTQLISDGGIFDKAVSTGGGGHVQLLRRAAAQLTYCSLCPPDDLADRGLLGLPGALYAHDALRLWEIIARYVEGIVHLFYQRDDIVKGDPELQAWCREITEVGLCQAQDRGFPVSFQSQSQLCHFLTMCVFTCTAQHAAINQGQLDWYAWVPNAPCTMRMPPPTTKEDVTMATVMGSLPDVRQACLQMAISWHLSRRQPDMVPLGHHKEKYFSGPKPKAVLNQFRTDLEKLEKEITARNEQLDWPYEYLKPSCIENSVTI

The molecules below were run against Polyunsaturated fatty acid lipoxygenase ALOX12 (Homo sapiens) (UniProt P18054) (assay: Primary qHTS assay for inhibitors of human arachidonate 12S-lipoxygenase (ALOX12): Round 2). Details: purified 12hLO, xylenol orange hydroperoxide absorbance; activity change, negative = inhibition: at 0.00344 µM (top of the series).
Procedure, shortened: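 Hydroperoxide product was detected by ferrous iron/xylenol orange as the 573 to 405 nm absorbance ratio. Arachidonic acid at 40 uM (final) was turned over for 30 min at room temperature by 150 nM human 12hLO, pH 7.0 Hepes buffer, after 15 min compound preincubation.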
% is set by controls: 0 for no effect and ±100 for the full control effect; potency is the fitted concentration of half-maximal effect.

Q: How did the activity change, negative = inhibition turn out when `O=C(O)CCCCCCCC(=O)O` was run?
A: The activity change, negative = inhibition was 1.53%.

Q: For `CC(O)CN(CCN(CC(C)O)CC(C)O)CC(C)O` (stereo not drawn), which activity change, negative = inhibition is on record?
A: The activity change, negative = inhibition was -59.3%.

Q: With `CC(=O)c1c(C)[nH]c(C(=O)C(C)Sc2ccc(F)c(Cl)c2)c1C` (stereo not drawn) as the molecule, how does the Potency read?
A: The Potency was active: 44.7 µM.

Q: For `Cc1ccc(C(=O)c2ccc(CC(=O)O)n2C)cc1`, which activity change, negative = inhibition is on record?
A: The activity change, negative = inhibition was 1.65%.

Q: Which activity change, negative = inhibition does the source give for `CCN[C@H]1CN(CCCOC)S(=O)(=O)c2sc(S(N)(=O)=O)cc21` here?
A: The activity change, negative = inhibition was 9.75%.

Q: Which activity change, negative = inhibition does the source give for `NS(=O)(=O)c1cc(C2(O)NC(=O)c3ccccc32)ccc1Cl` (stereo not drawn) here?
A: Its activity change, negative = inhibition is 19.3%.

Q: Which Potency does the source give for `CCn1c(-c2cc3c(C(F)(F)F)nn(C)c3s2)n[nH]c1=S` here?
A: Its Potency is active: 10 µM.

Q: How did the Potency turn out when `CCOC(=O)C1=C(CN(CC)Cc2ccccc2)NC(=O)NC1c1ccc(Cl)cc1` (stereo not drawn) was run?
A: The Potency was active: 22.4 µM.

Q: How did the activity change, negative = inhibition turn out when `NNCCc1ccccc1` was run?
A: The activity change, negative = inhibition was 6.13%.

Q: With `CCCCCCCCCCCCCCCC(=O)OC(C)C` as the molecule, how does the activity change, negative = inhibition read?
A: The activity change, negative = inhibition was -15.6%.

Q: Which Potency does the source give for `COc1ccc(NC(=S)NC(=O)/C=C/c2ccco2)c(OC)c1` here?
A: The Potency was active: 35.5 µM.

Q: `COC(=O)/C=C(/C)N` was tested. Which activity change, negative = inhibition did it give?
A: Its activity change, negative = inhibition is -9.06%.

Q: `CCOC(=O)c1cc(=O)c2c(OCC(COc3cccc4oc(C(=O)OCC)cc(=O)c34)OC(=O)[C@@H](N)CCCCN)cccc2o1` was tested. Which activity change, negative = inhibition did it give?
A: The activity change, negative = inhibition was 46%.

Q: With `CN1CCC(=C2c3ccccc3C=Cc3ccccc32)CC1` as the molecule, how does the activity change, negative = inhibition read?
A: Its activity change, negative = inhibition is 8.13%.

Q: `Cc1ccc(OCC(=O)N/N=C/C=C/c2ccco2)c(Br)c1` was tested. Which Potency did it give?
A: Its Potency is active: 39.8 µM.

Q: `O=C(O)Cc1ccc(-c2ccccc2)cc1` was tested. Which activity change, negative = inhibition did it give?
A: Its activity change, negative = inhibition is -22.8%.

Q: With `Cc1c(Cn2ccnc2)c2ccccc2n1CCC(=O)O` as the molecule, how does the activity change, negative = inhibition read?
A: Its activity change, negative = inhibition is -31.3%.

Q: For `CCCCCCCCCCCCCCCCCCOCC(O)CO` (stereo not drawn), which activity change, negative = inhibition is on record?
A: Its activity change, negative = inhibition is -10.9%.

Q: `C[N+](C)(CCOc1ccccc1)Cc1cccs1` was tested. Which activity change, negative = inhibition did it give?
A: The activity change, negative = inhibition was -12.1%.

Q: How did the activity change, negative = inhibition turn out when `Oc1ccccc1` was run?
A: Its activity change, negative = inhibition is 17.4%.

Q: Which activity change, negative = inhibition does the source give for `CC(=O)Oc1ccccc1C(=O)Nc1ncc([N+](=O)[O-])s1` here?
A: The activity change, negative = inhibition was -0.464%.

Q: Which Potency does the source give for `CCOC(=O)NC1(NC(C)C)Oc2ccccc2O1` here?
A: Its Potency is active: 25.1 µM.

Q: For `CCCOC(=O)c1ccccc1`, which activity change, negative = inhibition is on record?
A: Its activity change, negative = inhibition is -2.95%.

Q: Which Potency does the source give for `O=c1c(C(c2c(O)nc3n(c2=O)CCS3)c2cccc3ccccc23)c(O)nc2n1CCS2` here?
A: The Potency was active: 31.6 µM.

Q: How did the Potency turn out when `N#C/C(=C/c1cccc(F)c1)S(=O)(=O)c1ccc(Br)cc1` was run?
A: The Potency was active: 22.4 µM.

Q: For `COc1cc(C(=O)OCCCN2CCCN(CCCOC(=O)c3cc(OC)c(OC)c(OC)c3)CC2)cc(OC)c1OC`, which activity change, negative = inhibition is on record?
A: Its activity change, negative = inhibition is 0.912%.

Q: With `O=C(Nc1ccc(Cl)cc1)Nc1ccc(Cl)c(Cl)c1` as the molecule, how does the activity change, negative = inhibition read?
A: Its activity change, negative = inhibition is 5.18%.

Q: For `O=C1c2c(O)cccc2Cc2cccc(O)c21`, which activity change, negative = inhibition is on record?
A: Its activity change, negative = inhibition is -25.5%.

Q: `CCOc1cc(NC(=S)Nc2ccccc2OC)c(OCC)cc1NC(=O)c1ccccc1C` was tested. Which Potency did it give?
A: Its Potency is active: 44.7 µM.

Q: Which activity change, negative = inhibition does the source give for `NS(=O)(=O)c1cc2c(cc1Cl)NCNS2(=O)=O` here?
A: The activity change, negative = inhibition was -12.1%.

Q: For `C[N+]1(C)CCC(=C(c2ccccc2)c2ccccc2)CC1`, which activity change, negative = inhibition is on record?
A: Its activity change, negative = inhibition is -44.6%.

Q: With `NC(N)=N/N=C/c1c(Cl)cccc1Cl` as the molecule, how does the activity change, negative = inhibition read?
A: The activity change, negative = inhibition was 25.1%.

Q: For `CC(=O)NS(=O)(=O)c1ccc(N=c2ssc3c2-c2ccc(C)cc2NC3(C)C)cc1`, which Potency is on record?
A: Its Potency is active: 15.8 µM.

Q: With `CCCCCCCCCCCCCCCCCC(=O)OCC(O)CO` (stereo not drawn) as the molecule, how does the activity change, negative = inhibition read?
A: The activity change, negative = inhibition was 5.15%.

Q: Which Potency does the source give for `CC1(C)CC(=O)c2cc(-c3nc(-c4ccc(F)cc4)cs3)c(=O)[nH]c2C1` here?
A: Its Potency is active: 50.1 µM.

Q: For `NS(=O)(=O)c1ccc(NC(=O)CCC(=O)O)cc1`, which activity change, negative = inhibition is on record?
A: The activity change, negative = inhibition was -8.86%.

Q: With `C[N+]12CCC(CC1)C(OC(=O)C(O)(c1ccccc1)c1ccccc1)C2` (stereo not drawn) as the molecule, how does the activity change, negative = inhibition read?
A: Its activity change, negative = inhibition is 24.9%.

Q: Which activity change, negative = inhibition does the source give for `Nc1ncnc2c1ncn2[C@@H]1O[C@H](COP(=O)(O)O)[C@@H](O)[C@H]1O` here?
A: Its activity change, negative = inhibition is 8.18%.

Q: Which activity change, negative = inhibition does the source give for `O=C1Nc2cc(Cl)ccc2Oc2ccccc21` here?
A: Its activity change, negative = inhibition is 21.7%.

Q: Which Potency does the source give for `Cc1cc(C(=O)OCC(=O)Nc2sc3c(c2C#N)CCC(C)C3)c2ccccc2n1` (stereo not drawn) here?
A: Its Potency is active: 39.8 µM.

Q: How did the activity change, negative = inhibition turn out when `CO[C@]12C[C@@H](COC(=O)c3cncc(Br)c3)CN(C)[C@@H]1Cc1cn(C)c3cccc2c13` was run?
A: The activity change, negative = inhibition was -30.1%.

Q: How did the activity change, negative = inhibition turn out when `COc1cc(C(=O)N2CCOCC2)cc(OC)c1OC` was run?
A: Its activity change, negative = inhibition is -24.4%.

Q: With `CC(=O)OCC(=O)[C@@]1(O)CC[C@H]2[C@@H]3CCC4=CC(=O)C=C[C@]4(C)[C@@]3(F)[C@@H](O)C[C@@]21C` as the molecule, how does the activity change, negative = inhibition read?
A: The activity change, negative = inhibition was 28.5%.

Q: For `C#C[C@]1(O)CC[C@H]2[C@@H]3[C@H](C)CC4=C(CCC(=O)C4)[C@H]3CC[C@@]21C`, which activity change, negative = inhibition is on record?
A: Its activity change, negative = inhibition is -26.2%.

Q: How did the activity change, negative = inhibition turn out when `O=C(O)COc1nn(Cc2ccccc2)c2ccccc12` was run?
A: The activity change, negative = inhibition was 38.8%.

Q: Which Potency does the source give for `CC1(C)C2CC=C(/C=N/NC(=S)NCCc3ccccc3)C1C2` (stereo not drawn) here?
A: Its Potency is active: 44.7 µM.

Q: With `CN(C)CCCOc1nn(Cc2ccccc2)c2ccccc12` as the molecule, how does the activity change, negative = inhibition read?
A: Its activity change, negative = inhibition is -20.9%.

Q: With `CCc1ccc(-c2cc(C(=O)NCc3ccco3)c3ccccc3n2)s1` as the molecule, how does the Potency read?
A: The Potency was active: 17.8 µM and active: 35.5 µM.

Q: Which activity change, negative = inhibition does the source give for `O=C(O)c1ccccc1NCCc1ccccc1` here?
A: The activity change, negative = inhibition was -16%.

Q: How did the Potency turn out when `CSCC[C@@H]1NC(=O)c2cc(NC(=O)Cn3ccc4ccccc43)ccc2NC1=O` was run?
A: The Potency was active: 35.5 µM.

Q: With `S=c1[nH]nc(CSCc2ccc(Cl)cc2Cl)n1-c1ccccc1` as the molecule, how does the Potency read?
A: The Potency was active: 28.2 µM.

Q: With `CCCCCC(N)=O` as the molecule, how does the activity change, negative = inhibition read?
A: The activity change, negative = inhibition was 42.8%.

Q: Which Potency does the source give for `CCN1CCN(c2ccc(S(=O)(=O)N3CCCCC3)cc2NC(=O)C(C)Oc2ccc(F)cc2)CC1` (stereo not drawn) here?
A: Its Potency is active: 44.7 µM.

Q: With `Oc1ccc(O)cc1` as the molecule, how does the activity change, negative = inhibition read?
A: Its activity change, negative = inhibition is -29.2%.

Q: Which activity change, negative = inhibition does the source give for `COc1cc2nc(N3CCN(C(=O)C4CCCO4)CC3)nc(N)c2cc1OC` (stereo not drawn) here?
A: The activity change, negative = inhibition was 21.8%.

Q: With `O=C(Nc1csnn1)c1csnn1` as the molecule, how does the Potency read?
A: The Potency was active: 10 µM.

Q: `Cc1ccc(/C(=C\CN2CCCC2)c2ccccn2)cc1` was tested. Which activity change, negative = inhibition did it give?
A: Its activity change, negative = inhibition is 26.9%.

Q: Which Potency does the source give for `COc1ccc(C(=O)/C(=C/c2ccco2)c2nc3ccccc3o2)cc1` here?
A: The Potency was active: 14.1 µM.

Q: For `CC(=O)Nc1ccc(NC(=O)c2cc(-c3ccco3)nc3ccccc23)cc1`, which Potency is on record?
A: The Potency was active: 11.2 µM.

Q: With `Cc1ccc(C(C)C)cc2c(C)ccc1-2` as the molecule, how does the activity change, negative = inhibition read?
A: The activity change, negative = inhibition was -13.3%.

Q: How did the activity change, negative = inhibition turn out when `CC(C)=CCC/C(C)=C/CC/C(C)=C/CCC(=O)OC/C=C(\C)CCC=C(C)C` was run?
A: The activity change, negative = inhibition was -2.5%.

Q: With `CC(=O)Nc1ccc(S(=O)(=O)Nc2ccc([N+](=O)[O-])cc2)cc1` as the molecule, how does the activity change, negative = inhibition read?
A: Its activity change, negative = inhibition is -10.6%.

Q: How did the activity change, negative = inhibition turn out when `Cc1ccc(C(=O)Nc2ccc(S(=O)(=O)O)c3cc(S(=O)(=O)O)cc(S(=O)(=O)O)c23)cc1NC(=O)c1cccc(NC(=O)Nc2cccc(C(=O)Nc3cc(C(=O)Nc4ccc(S(=O)(=O)O)c5cc(S(=O)(=O)O)cc(S(=O)(=O)O)c45)ccc3C)c2)c1` was run?
A: The activity change, negative = inhibition was 10.9%.

Q: Which activity change, negative = inhibition does the source give for `CC(=O)Nc1c(I)c(NC(C)=O)c(I)c(C(=O)O)c1I` here?
A: Its activity change, negative = inhibition is 20.6%.

Q: Which Potency does the source give for `CC(=O)NC1(C)CCCN(Cc2cccc(-c3ccc4c(ccn4C)c3)c2)C1` (stereo not drawn) here?
A: Its Potency is active: 35.5 µM.

Q: How did the Potency turn out when `Clc1cccc(Cc2c(-c3ccco3)nc3c4ccccc4ccn23)c1` was run?
A: The Potency was active: 10 µM.

Q: Which Potency does the source give for `CC(C)c1ccc(NC(=O)CSc2nc3ccccc3nc2N2CCCC2)cc1` here?
A: Its Potency is active: 6.31 µM.

Q: How did the Potency turn out when `COc1ccc(Br)cc1C1CC(=O)N2CN(C)CSC2=C1C#N` (stereo not drawn) was run?
A: The Potency was active: 28.2 µM.
